Data as given in PubChem BioAssay AID1259308 (NCATS, 2017)
Aim: 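Genes whose loss raises luciferase production in HEK293 cells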 (primary screen). Cell system: human HEK293 embryonic kidney cells stably expressing firefly luciferase (HEK-CMV-Luc2-Hygro). Reagent: single siRNA against human genes, 0.8 pmol siRNA per well. Time to read-out: 72 h. Read-out: 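Luciferase light (ONE-Glo) measured on one replicate plate set and viability (CellTiter-Glo) on the other, scaled to a negative control siRNA, with robust z-scores and luciferase per cell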. Reading the numbers: total luciferase, z-score and total luciferase, % of control: higher = more reporter protein produced; luciferase per cell, z-score: higher = more reporter output per viable cell; viable cells, % of control: higher = more viable cells. Rule for the call: 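Active when the median/MAD z-score for overall luciferase is greater than 3; a gene was taken forward for validation with new siRNAs if at least two of its three siRNAs passed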. Meaning of the calls: active = raised luciferase; inactive = no rise.
Here is a random part of about 59,000 reagents tested. About 1,510 of them (2.6%) were called active. 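Calls use total luciferase alone and ignore viability, so some active siRNAs may act by altering cell number.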 Unmarked entries are inactive. Reagents against one gene are numbered here.

target,reagent no.,"total luciferase, z-score","total luciferase, % of control","luciferase per cell, z-score","viable cells, % of control"
ARPC3 (actin related protein 2/3 complex subunit 3),1,-0.2,77.9,-0.173,91.1
ARPC3 (actin related protein 2/3 complex subunit 3),2,0.0193,82.3,-0.673,110
ARPC3 (actin related protein 2/3 complex subunit 3),3,-0.218,77.5,0.218,81.8
PPP2R5A (protein phosphatase 2 regulatory subunit B'alpha),1,2.64,134,1.79,93.6
PPP2R5A (protein phosphatase 2 regulatory subunit B'alpha),2,-0.86,64.8,-1.37,104
PPP2R5A (protein phosphatase 2 regulatory subunit B'alpha),3,1.47,111,1.11,92.7
"ST6GAL2 (ST6 beta-galactoside alpha-2,6-sialyltransferase 2)",1,0.0462,82.8,-0.396,103
"ST6GAL2 (ST6 beta-galactoside alpha-2,6-sialyltransferase 2)",2,-0.557,70.8,1.46,53.9
"ST6GAL2 (ST6 beta-galactoside alpha-2,6-sialyltransferase 2)",3,0.0327,82.5,0.73,76.1
DCAF15 (DDB1 and CUL4 associated factor 15),1,-1.09,60.2,-0.183,70.6
DCAF15 (DDB1 and CUL4 associated factor 15),2,0.751,96.8,-0.196,114
DCAF15 (DDB1 and CUL4 associated factor 15),3,1.05,103,1.39,79.6
LMNA (lamin A/C),1,-1.6,50.1,-1.02,73.3
LMNA (lamin A/C),2,-1.21,57.8,-0.918,82.3
LMNA (lamin A/C),3,-1.9,44,0.878,39
SCAMP2,1,0.748,96.8,0.501,94.8
SCAMP2,2,0.334,88.5,0.144,95.3
SCAMP2,3,1.31,108,0.571,104
MDC1 (mediator of DNA damage checkpoint 1),1,-1.55,51.1,-1.69,89
MDC1 (mediator of DNA damage checkpoint 1),2,-0.038,81.1,-0.297,98
MDC1 (mediator of DNA damage checkpoint 1),3,1.06,103,0.761,94.1
LHX1 (LIM homeobox 1),1,0.882,99.4,1.01,85.2
LHX1 (LIM homeobox 1),2,0.715,96.1,0.289,99.5
LHX1 (LIM homeobox 1),3,-3.24,17.5,-1.56,29.5

Part of the list above, set out differently.
{"target":"MDC1 (mediator of DNA damage checkpoint 1)","reagent no.":1,"total luciferase, z-score":-1.55,"total luciferase, % of control":51.1,"luciferase per cell, z-score":-1.69,"viable cells, % of control":89}
{"target":"MDC1 (mediator of DNA damage checkpoint 1)","reagent no.":2,"total luciferase, z-score":-0.038,"total luciferase, % of control":81.1,"luciferase per cell, z-score":-0.297,"viable cells, % of control":98}
{"target":"MDC1 (mediator of DNA damage checkpoint 1)","reagent no.":3,"total luciferase, z-score":1.06,"total luciferase, % of control":103,"luciferase per cell, z-score":0.761,"viable cells, % of control":94.1}
